This experiment has as its target T1, Bfl-1 C55S (cysteine-to-serine mutant) (human) (UniProt Q16548).
T1 sequence (looked up): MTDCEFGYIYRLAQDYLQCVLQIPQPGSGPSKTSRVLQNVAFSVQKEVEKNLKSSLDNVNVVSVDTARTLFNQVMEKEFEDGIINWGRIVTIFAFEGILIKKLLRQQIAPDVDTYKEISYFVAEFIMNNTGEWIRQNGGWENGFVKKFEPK
The experiment is described as follows: yeast surface display, flow cytometry.

No constants are given. Whether binding was seen depends on the method and setting. Some entries that bind do so weakly or less than the wild type. Tags and fused reporters may be left off the sequences shown.

B1: yeast-displayed Puma-BH3 (residues 132-172 of human Puma fused to Aga2p) (peptide, not shown: large carriers; small tags and cut ends)
chain: GGGGSGGGGSGGGGSQWAREIGAQLRRMADDLNAQYERRRQEEQQRHRPSPWRVLY
With B1, the binding result is “binds”.

The record behind these values is patent publication US20190185531A1.
